Test results as given in PubChem BioAssay AID720504 (National Center for Advancing Translational Sciences (NCATS), 2013).
The whole screen tested about 360,000 compounds, of which about 10,000 (2.8%) were called active. The inconclusive results got no clear call from the source; some entries with a clear call stand among them for comparison. The call rests on the fitted dose curve; in most records, active means well fitted inhibition curve with a large enough effect; inconclusive means small, poorly fitted or top-dose-only effect; inactive means flat fitted curve, though single readings scatter. Potencies of inconclusive entries are doubtful fits and often do not repeat.

Sequences of proteins named here, by UniProt entry; tags and fusion partners are left off.
UniProt P53350, whole entry, looked up: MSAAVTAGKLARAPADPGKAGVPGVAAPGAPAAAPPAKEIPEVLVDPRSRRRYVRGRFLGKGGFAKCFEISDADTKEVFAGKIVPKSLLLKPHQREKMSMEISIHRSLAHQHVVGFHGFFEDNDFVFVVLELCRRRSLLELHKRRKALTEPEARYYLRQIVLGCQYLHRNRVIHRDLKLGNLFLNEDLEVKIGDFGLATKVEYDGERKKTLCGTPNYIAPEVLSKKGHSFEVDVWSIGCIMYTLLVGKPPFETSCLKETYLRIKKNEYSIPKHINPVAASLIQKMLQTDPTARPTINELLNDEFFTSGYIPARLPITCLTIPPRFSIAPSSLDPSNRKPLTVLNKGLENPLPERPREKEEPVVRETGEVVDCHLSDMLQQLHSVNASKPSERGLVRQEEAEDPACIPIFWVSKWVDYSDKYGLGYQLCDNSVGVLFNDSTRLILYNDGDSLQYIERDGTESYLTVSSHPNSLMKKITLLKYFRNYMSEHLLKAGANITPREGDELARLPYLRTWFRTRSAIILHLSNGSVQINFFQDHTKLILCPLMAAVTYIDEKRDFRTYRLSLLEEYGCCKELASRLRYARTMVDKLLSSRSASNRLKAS

What follows are compounds tested against Serine/threonine-protein kinase PLK1 (Homo sapiens) (UniProt P53350) (assay: qHTS for Inhibitors of PLK1-PDB (polo-like kinase 1 - polo-box domain): Primary Screen). Conditions: Plk1 PBD binding of FITC phosphopeptide, fluorescence polarization.
Further: nearly all actives have a fitted effect of over 65% in size.
On the % scale 0 is the no-effect control and ±100 the full control effect; potency means the concentration at half of the fitted maximal effect.
Wherever max response, negative = inhibition is given: series mostly up to about 57 µM.

Which Potency does the source give for `CCc1nc(SCc2ccccc2)n[nH]1` here?
The Potency was inconclusive: 23.8 µM [inhibitor, single point].

Which Potency does the source give for `CCn1cc(Cl)c(C(=O)Nc2cccc(C(F)(F)F)c2)n1` here?
The Potency was inconclusive: 29.9 µM [inhibitor, partial curve].

For `Cc1cc(C)cc(OCC(=O)Nc2nc(-c3cccnc3)cs2)c1`, which Potency is on record?
The Potency was active: 11.9 µM.

How did the Potency turn out when `COc1cccc(/C=N/n2c(COc3ccccc3)n[nH]c2=S)c1OC` was run?
Its Potency is inconclusive: 29.9 µM [inhibitor, single point].

`COc1ccc(-n2ncc3c(N4CCC(C)CC4)ncnc32)cc1` was tested. Which max response, negative = inhibition did it give?
Its max response, negative = inhibition is inactive: -10.4%.

`Cc1ccc(Nc2c(F)c(F)c(F)c(F)c2C(=O)O)c(C)c1` was tested. Which max response, negative = inhibition did it give?
Its max response, negative = inhibition is inconclusive: -31.4% [inhibitor].

For `O=C(Nc1cc(S(=O)(=O)N2CCOCC2)ccc1N1CCCC1)C1CC1`, which Potency is on record?
Its Potency is inconclusive: 37.7 µM [inhibitor, single point].

For `CCOC(=O)c1c(-c2cccs2)csc1N`, which Potency is on record?
The Potency was inconclusive: 21.2 µM [inhibitor, single point].

`Cc1ccc(NC(=O)CSCc2n[nH]c(=O)[nH]2)c(Br)c1` was tested. Which Potency did it give?
Its Potency is inconclusive: 18.9 µM [inhibitor, partial curve].

`COc1ccc(C2N(c3ccc(Cl)cc3)N=C(C(C)=O)N(C)N2C(C)=O)cc1` (configuration not stated) was tested. Which max response, negative = inhibition did it give?
The max response, negative = inhibition was inactive: -8.26%.

Which Potency does the source give for `COc1ccc(C(C)=O)cc1COC(=O)c1ccc2c(c1)OCCO2` here?
Its Potency is inconclusive: 21.2 µM [inhibitor, partial curve].

Which max response, negative = inhibition does the source give for `COc1ccc([N+](=O)[O-])cc1-c1[nH]c(-c2ccc(C(=O)O)cc2)nc1-c1ccccc1` here?
The max response, negative = inhibition was inactive: -17.4%.

How did the Potency turn out when `CC(=O)c1cc(NC(=O)c2ccc(C)cc2)c(=O)oc1C` was run?
Its Potency is active: 10.6 µM.

`COc1ccc(NS(=O)(=O)c2cc(NC(=O)c3ccc(=O)[nH]c3)ccc2N2CCOCC2)cc1` was tested. Which Potency did it give?
Its Potency is inconclusive: 33.6 µM [inhibitor, single point].

For `C[C@@H]1CCCCO[C@@H](CN(C)S(=O)(=O)c2ccc(F)cc2)[C@@H](C)CN([C@H](C)CO)C(=O)c2cc(NC(=O)c3ccccc3)ccc2O1`, which max response, negative = inhibition is on record?
Its max response, negative = inhibition is inactive: 0.0619%.

`O=C(O)CN1C(=O)/C(=C/C=C/c2ccccc2)SC1=S` was tested. Which Potency did it give?
The Potency was inconclusive: 21.2 µM [inhibitor, partial curve].

For `COC(=O)C1=C(C)NC(=O)/C1=C\c1cc(C)n(-c2ccccc2C)c1C`, which max response, negative = inhibition is on record?
Its max response, negative = inhibition is inactive: -15%.

Which Potency does the source give for `CCSc1nc(-c2ccc(OC)cc2)n(-c2nc3ccccc3s2)n1` here?
Its Potency is inconclusive: 18.9 µM [inhibitor, partial curve].

`COc1ccc(CCNc2nc(-c3ccncc3)cs2)cc1OC` was tested. Which Potency did it give?
Its Potency is inconclusive: 37.7 µM [inhibitor, single point].

With `CCCC[C@H](CN[C@@H](CNC)[C@H](C)CC)NCCC12CCC(CC1)C2` as the compound, how does the Potency read?
The Potency was inconclusive: 21.2 µM [inhibitor, partial curve].

`COc1ccc(Cl)cc1S(=O)(=O)NC(C)C(=O)NCCN1CCOCC1` (configuration not stated) was tested. Which Potency did it give?
The Potency was inconclusive: 26.7 µM [inhibitor, single point].

Which Potency does the source give for `CCOC(=O)Cn1c(=O)cc(C)c2ccccc21` here?
The Potency was active: 3.36 µM.

Which max response, negative = inhibition does the source give for `Cc1cc(C(=O)NNc2ccc(F)cc2)no1` here?
The max response, negative = inhibition was inactive: -3.97%.

Which Potency does the source give for `COc1ccc(N2C(=O)C3CCCN3C2c2ccccc2Cl)cc1` (configuration not stated) here?
Its Potency is inconclusive: 33.6 µM [inhibitor, single point].

With `CCOc1ccccc1N1CCN(S(=O)(=O)CC)CC1` as the compound, how does the Potency read?
Its Potency is active: 26.7 µM.

Which Potency does the source give for `COc1ccc(-c2nn3c(-c4ccco4)nnc3s2)cc1OC` here?
Its Potency is inconclusive: 26.7 µM [inhibitor, partial curve].

For `Cc1c(C(=O)OCC(=O)Nc2c(C)n(C)n(-c3ccccc3)c2=O)cccc1[N+](=O)[O-]`, which Potency is on record?
Its Potency is active: 21.2 µM.

With `COc1ccc(CCN(C)CCC(=O)Nc2cccc(C)c2)cc1OC` as the compound, how does the max response, negative = inhibition read?
Its max response, negative = inhibition is inactive: -13%.

With `CC(C)(C)N(Cc1ccccc1)C(=O)COC(=O)CSc1ccc([N+](=O)[O-])cc1` as the compound, how does the Potency read?
Its Potency is active: 11.9 µM.

With `CCc1cc(-c2n[nH]c(=S)n2CC)cs1` as the compound, how does the Potency read?
The Potency was inconclusive: 26.7 µM [inhibitor, single point].

With `CC(=O)Nc1ccc(/C(C)=N/NC(=O)c2ccncc2)cc1` as the compound, how does the max response, negative = inhibition read?
The max response, negative = inhibition was inconclusive: -21.6% [inhibitor].

How did the Potency turn out when `CC(=O)c1cccc(NC(=O)Oc2ccccc2)c1` was run?
Its Potency is inconclusive: 23.8 µM [inhibitor, partial curve].
